# Laboratory results: PubChem BioAssay AID504467 (National Center for Advancing Translational Sciences (NCATS), 2011)
# Screen size: about 330,000 compounds; about 7,700 (2.3%) were called active. Inconclusive means that the source gave no clear call. Such entries were picked first, then a sample of the others. Calls follow the shape of the dose curve; as a rule, active = well fitted inhibition curve with a large enough effect; inconclusive = small, poorly fitted or top-dose-only effect, or effect the other way; inactive = flat fitted curve, though single readings scatter. A potency beside an inconclusive call is a rough fit, not a confirmed value.
# Assay: qHTS screen for small molecules that inhibit ELG1-dependent DNA repair in human embryonic kidney (HEK293T) cells expressing luciferase-tagged ELG1; also: nearly all actives have a fitted effect of over 55% in size
# Details: HEK293T ELG1-luciferase reporter, luminescence, 16 h, DNA damage induced by 5-fluorouridine; series mostly up to 46.1 µM
# Summary of the method: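 5-Fluorouridine DNA damage + compound/DMSO, 2,000 cells/well, 16 h, 37 °C/5% CO2. ONE-Glo, 30 min RT, luminescence. Readout = decrease in reporter signal.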
# Potency is read from the fitted curve at half-maximal effect.
row,SMILES,Potency
1,Cc1cccc(OCC(=O)N/N=C\c2cn(C)c3ccccc23)c1,active: 5.8 µM
2,Cc1ccc(Nc2nc(N)nc(CCl)n2)c(C)c1,"inconclusive: 13 µM [inhibitor, partial curve]"
3,O=C(Nc1cccc(F)c1)C1CCN(c2nnnn2-c2ccccc2)CC1,"inconclusive: 29.1 µM [inhibitor, single point]"
4,CN(C)S(=O)(=O)c1ccc(C(=O)NN2C(=O)NC3(CCCCC3)C2=O)cc1,inactive
5,Cc1onc(-c2ccccc2)c1C(=O)N1CCN(C/C=C/c2ccccc2)CC1,"inconclusive: 23.1 µM [inhibitor, single point]"
6,Cn1nccc1C(=O)Nc1ccc2c(c1)OCO2,"inconclusive: 16.4 µM [activator, partial curve]"
7,CSc1ncccc1-c1nc2ccccc2[nH]1,"inconclusive: 18.4 µM [activator, partial curve]"
8,COc1cc(/C=N/Nc2cc(C)nc(N)n2)ccc1O,"inconclusive: 18.3 µM [activator, single point]"
9,Cc1ccc(NC(=O)Nc2cnccn2)cc1Cl,"inconclusive: 5.8 µM [activator, partial curve]"
10,CCOC(=O)CCSc1nc(C)c2cc(OC)ccc2n1,"inconclusive: 18.4 µM [activator, partial curve]"
11,CCN1CCCC1CN(Cc1cc2ccc(C)c(C)c2[nH]c1=O)C(=O)Nc1ccccc1OC (stereo not given),inactive
12,Cc1nn(C)c(C)c1NC(=O)Nc1ccc(Cl)c(Cl)c1,inactive
13,CCOC(=O)c1c(NC(=O)CSc2nc3ccc(OC)cc3[nH]2)sc2c1CC(C)(C)NC2(C)C,"inconclusive: 18.3 µM [inhibitor, partial curve]"
14,O=C(NC(=S)Nc1cc([N+](=O)[O-])ccc1O)C1CC1,inactive
15,COC(=O)c1ccc2c(=O)n(-c3ccccc3F)c(=S)[nH]c2c1,active: 18.3 µM
16,Cc1cccc(OCc2occc2C(=O)Nc2cccc(-n3cnnn3)c2)c1,"inconclusive: 23.1 µM [inhibitor, partial curve]"
17,Cc1[nH][nH]c(=O)c1C(c1ccc(-c2cccc(C(=O)O)c2)o1)c1c(C)[nH][nH]c1=O,inactive
18,O=C(CNC(=O)c1ccco1)Nc1cc(Cl)ccc1N1CCOCC1,"inconclusive: 10.3 µM [inhibitor, partial curve]"
19,Fc1ccc(-c2cn3ccccc3n2)cc1,"inconclusive: 2.91 µM [activator, partial curve]"
20,COC(=O)CCc1sc(Nc2ccccc2)nc1-c1ccc(OC)cc1,"inconclusive: 3.66 µM [activator, partial curve, poor fit]"
21,O=C(NCCc1ccc(Cl)cc1)c1ccc(OCC2CCCO2)cc1 (stereo not given),"inconclusive: 13 µM [activator, partial curve]"
22,CC(=O)Nc1ccc(NC(=O)C(C)OC(=O)c2cc(S(=O)(=O)N(C)C)ccc2N2CCCC2)cc1 (stereo not given),"inconclusive: 7.3 µM [inhibitor, partial curve]"
23,CCCN(CCC)CCCNC(=O)c1cc2c(=O)n(C)c3ccccc3c2n1C,"inconclusive: 7.31 µM [activator, partial curve]"
24,O=C(NC1=NCCS1)C12CC3CC(CC(C3)C1)C2,inactive

# In a second layout: entries from further up
row	SMILES	Potency
13	CCOC(=O)c1c(NC(=O)CSc2nc3ccc(OC)cc3[nH]2)sc2c1CC(C)(C)NC2(C)C	inconclusive: 18.3 µM [inhibitor, partial curve]
14	O=C(NC(=S)Nc1cc([N+](=O)[O-])ccc1O)C1CC1	inactive
15	COC(=O)c1ccc2c(=O)n(-c3ccccc3F)c(=S)[nH]c2c1	active: 18.3 µM

# (more compounds)

row,SMILES,Potency
1,COc1ccc(-n2nc(C(=O)NCC(=O)NCCCN3CC(C)CC(C)C3)c3ccccc3c2=O)cc1 (stereo not given),"inconclusive: 18.3 µM [activator, partial curve, poor fit]"
2,CC(C)NC(=O)NC(=O)CN1C(=O)NC2(CCc3ccccc3C2)C1=O (stereo not given),"inconclusive: 29.1 µM [activator, single point]"
3,CC(C)c1ccc(OCc2ccc(C(=O)N3CCCC3)o2)cc1,"inconclusive: 11.6 µM [activator, partial curve]"
4,COc1ccc(N2CCN(CCCNC(=O)Cn3c(=O)c4cccn4c4ccccc43)CC2)cc1,inactive
5,O=C(Oc1cc(=O)n2ccccc2n1)c1ccccc1,"inconclusive: 2.59 µM [inhibitor, partial curve, poor fit]"
6,Cc1cc(C(F)(F)F)n(-c2nc(C(=O)NNS(=O)(=O)c3ccccc3[N+](=O)[O-])cs2)n1,active: 5.8 µM
7,Cn1cnc([N+](=O)[O-])c1Sc1nnc(-c2cccnc2)n1C,"inconclusive: 23.1 µM [activator, partial curve]"
8,COc1cc(NC(=O)c2cc(-c3cccnc3)nc3ccc(C)cc23)c(OC)cc1Cl,"inconclusive: 4.11 µM [inhibitor, single point]"
9,CC(=O)c1ccc2noc(-c3ccccc3)c2c1,active: 9.2 µM
10,CCOC(=O)c1sc(NC(=O)c2cccs2)cc1C,"inconclusive: 2.59 µM [activator, partial curve]"
11,CNC(=O)NC1CCCc2ccccc21 (stereo not given),"inconclusive: 14.6 µM [activator, partial curve]"
12,O=C(c1ccco1)N1CCN(C(c2ccc(Cl)cc2)c2nnnn2CC2CCCO2)CC1 (stereo not given),inactive
13,CC1CCN(Cc2ccc(-c3nnn(CC(=O)Nc4ccccc4Cl)n3)cc2)CC1,"inconclusive: 18.3 µM [inhibitor, partial curve]"
14,Cc1cc(/C=N/NC(=O)c2cccc([N+](=O)[O-])c2)c(C)n1-c1ccccc1,"inconclusive: 10.3 µM [activator, partial curve]"
15,COc1ccccc1N1CCN(C(=O)COc2cc(C)cc3oc(=O)cc(C)c23)CC1,"inconclusive: 25.9 µM [inhibitor, single point]"
16,CC(=O)c1ccc(N/N=C(/C(N)=O)C2=NC(C)(C)Cc3ccccc32)cc1,active: 20.6 µM
17,O=C(CN1CCN(C(=O)C2COc3ccccc3O2)CC1)Nc1ccc(F)cc1 (stereo not given),inactive
18,CCOC(=O)Cc1c(C)c2ccc(N(CC)CC)cc2oc1=O,"inconclusive: 23.1 µM [inhibitor, single point]"
19,Cc1ccc(-c2nsc3c(N4CCC(C(N)=O)CC4)ncnc23)cc1,"inconclusive: 1.64 µM [activator, full curve]"
20,CCOc1ccc(OCCCC(=O)N2CCN(S(=O)(=O)c3ccc(Cl)cc3)CC2)cc1,inactive
21,O=C(Nc1cccc(F)c1)c1ccco1,"inconclusive: 16.4 µM [activator, single point]"
22,Cc1ccc(C)c(NC(=S)N/N=C2\CCc3ccccc32)c1,"inconclusive: 18.3 µM [inhibitor, partial curve, poor fit]"
23,C=CC[C@H](CC(=O)NCCO)C(=O)N[C@H](COC(=O)[C@H](CC=C)CC(=O)OC(C)(C)C)Cc1c[nH]c2ccccc12,active: 23.1 µM
24,Fc1cccc(CNc2ncnc3cc(Cl)ccc23)c1F,"inconclusive: 11.6 µM [inhibitor, partial curve]"

row,SMILES,Potency
1,CC1CCCC(NC(=O)c2ccc3c(c2)OCO3)C1C (stereo not given),"inconclusive: 8.2 µM [activator, single point]"
2,COC(=O)c1cc(C(=O)c2ccc(Cl)cc2)n2c(=O)/c(=C\N(C)C)sc12,inactive
3,Cc1ccc(N/N=C(\C#N)C(N)=S)cc1C,"inconclusive: 16.4 µM [inhibitor, single point]"
4,Cc1ccc(S(=O)(=O)N2CCN(C(=O)c3cc4c(s3)CCCC4)CC2)cc1,inactive
5,COc1cccc(C(=O)Nc2cccc(-c3ccc(N4CCOCC4)nn3)c2)c1OC,inactive
6,COc1ccc(C2=NS(=O)(=O)N(C)C(C(=O)N3CCCCC3)=C2)cc1OC,inactive
7,CCc1cccc(NS(=O)(=O)c2c(C)nc3sc(CC)nn3c2=O)c1,inactive
8,CCOc1ccc(-n2c(SCc3cc(=O)oc4cc(C)c(C(C)C)cc34)nnc2-c2cccnc2)cc1,"inconclusive: 25.9 µM [inhibitor, single point]"
9,COc1ccccc1-c1ccc(SCc2ccc(C)cc2)nn1,"inconclusive: 11.6 µM [activator, partial curve]"
10,COc1ccc(S(=O)(=O)Cc2ccc(C(=O)N3CCN(c4cccc(C)c4)C(C)C3)o2)cc1 (stereo not given),active: 13 µM
11,COCc1nnc(NC(=O)c2cccc(NC(=O)C(C)C)c2)s1,"inconclusive: 18.3 µM [activator, single point]"
12,CC(=O)c1ccc(NC(=O)c2sc3nc(N4CCOCC4)c4c(c3c2N)CCCC4)cc1,"inconclusive: 14.6 µM [activator, single point]"
13,CCCn1c(CCNc2nc(-c3ccc(OC)cc3)cs2)nc2ccccc21,inactive
14,Cc1c(/C=N/NC(=O)CNc2ccccc2)c2ccccn2c1C(=O)c1ccncc1,active: 18.4 µM
15,CCOC(=O)C1CCN(C(=O)c2cc(S(=O)(=O)N3CCc4ccccc43)ccc2OC)CC1,inactive
16,CCCCn1c(=O)n(Cc2cccc(F)c2)c(=O)c2c1ncn2Cc1ccco1,"inconclusive: 23.1 µM [inhibitor, partial curve, poor fit]"
17,CN(C)CCCN(C(=O)c1ccc(Br)s1)c1nc2cc3c(cc2s1)OCO3,"inconclusive: 7.3 µM [inhibitor, single point]"
18,Fc1c(F)c(F)c(N/N=C/c2c[nH]c3ccccc23)c(F)c1F,"inconclusive: 14.6 µM [activator, partial curve, poor fit]"
19,O=C(Nc1nc2n(n1)C(c1ccc(F)cc1)CC(c1ccccc1)N2)c1ccco1 (stereo not given),inactive
20,CC(=O)c1ccc(N2CCN(S(=O)(=O)c3ccc4c(c3)CC(C)N4C(C)=O)CC2)cc1 (stereo not given),"inconclusive: 3.66 µM [inhibitor, partial curve, poor fit]"
21,Cc1ccc2c(C(=O)CN3CCCCC3CCO)c(C)[nH]c2c1 (stereo not given),inactive
22,CCN(CC(=O)Nc1sc2c(c1C#N)CCC(C)C2)Cc1nc2ccccc2c(=O)[nH]1 (stereo not given),active: 13 µM
